Measurements reported in PubChem BioAssay AID1508597 (Cure First, 2020)
Shown is a random part of the about 2,100 reagents, under one of the conditions tested. 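Calls flag viability under 80% in either arm, not effects specific to rucaparib; the reference for percent is not stated.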 A reagent listed more than once was tested more than once; the source does not tell the runs apart. No sequences are given here. Not stated in the record: the 100% reference.

- Assay: 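Knock-downs altering ovarian cancer cell survival with or without PARP inhibitor rucaparib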 (primary screen)
- Cells: human ovarian carcinoma lines grown from tumours: OCI-P5x (papillary serous) and OCI-C5x (clear cell)
- Reagent: siRNA pool against human genes, 1.25 pmol siRNA per well
- Timing: 72 h or 96 h, depending on the cell culture
- Treatment: rucaparib 20 µM (about IC30) or vehicle, present until read-out
- Rucaparib or vehicle: Rucaparib
- Cell line: OCI-C5x (clear cell)
- Detection: 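Luminescent ATP-based viability assay read 72 or 96 h after transfection, depending on culture, given as normalised percent viability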
- Reading the numbers: viability, normalised: higher = more viable cells remaining
- Call rule: 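Active when normalised viability falls below 80 percent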
- Calls: active = viability under 80%; inactive = viability 80% or more

gene symbol | technical replicate | viability, normalised (%) | outcome
TJP2 | 1 | 54.4 | active
TJP2 | 2 | 37.2 | active
TJP2 | 3 | 47.9 | active
UHMK1 | 1 | 57.5 | active
UHMK1 | 2 | 60.4 | active
UHMK1 | 3 | 67.6 | active
TRERF1 | 1 | 68.1 | active
TRERF1 | 2 | 57.7 | active
TRERF1 | 3 | 58.2 | active
RFC4 | 1 | 47.5 | active
RFC4 | 2 | 57.8 | active
RFC4 | 3 | 52.2 | active
BHLHE40 | 1 | 51.8 | active
BHLHE40 | 2 | 40.7 | active
BHLHE40 | 3 | 46.9 | active
BAP1 | 1 | 48 | active
BAP1 | 1 | 52.2 | active
BAP1 | 2 | 48.5 | active
BAP1 | 2 | 65.3 | active
BAP1 | 3 | 41.2 | active
BAP1 | 3 | 50.3 | active
CSNK1E | 1 | 57.8 | active
CSNK1E | 1 | 59.1 | active
CSNK1E | 1 | 71 | active
CSNK1E | 2 | 65 | active
CSNK1E | 2 | 50.9 | active
CSNK1E | 2 | 34.6 | active
CSNK1E | 3 | 51.8 | active
CSNK1E | 3 | 57.8 | active
CSNK1E | 3 | 61.5 | active
IKBKB | 1 | 37.7 | active
IKBKB | 2 | 53.7 | active
IKBKB | 3 | 42.1 | active
RB1 | 1 | 49.6 | active
RB1 | 2 | 35 | active
RB1 | 3 | 36.4 | active
CECR2 | 1 | 45.7 | active
CECR2 | 1 | 60 | active
CECR2 | 2 | 47.6 | active
CECR2 | 2 | 49.7 | active
CECR2 | 3 | 53.2 | active
CECR2 | 3 | 56.3 | active
MED15 | 1 | 48.5 | active
MED15 | 2 | 58.2 | active
MED15 | 3 | 50.4 | active
TKFC | 1 | 32.1 | active
TKFC | 2 | 23.2 | active
TKFC | 3 | 22.2 | active
KMT2C | 1 | 50.5 | active
KMT2C | 2 | 49.2 | active
KMT2C | 3 | 33.4 | active
CSNK1A1L | 1 | 56 | active
CSNK1A1L | 2 | 56.6 | active
CSNK1A1L | 3 | 58.8 | active
UTP3 | 1 | 54.8 | active
UTP3 | 2 | 49.2 | active
UTP3 | 3 | 56 | active
